Test results from the supplement of paper PMC11732987, “Enantioselective OTUD7B fragment discovery through chemoproteomics screening and high-throughput optimisation” (Communications Chemistry, 2025).
Some of the results follow. The data scatter; read single values as rough.

Chains of the proteins cited; added tags and fusions are not shown. Lines headed by an entry give the natural chain unless they say otherwise; changes in a name come on top. Residues count along the entry.
UniProt Q8WUM9: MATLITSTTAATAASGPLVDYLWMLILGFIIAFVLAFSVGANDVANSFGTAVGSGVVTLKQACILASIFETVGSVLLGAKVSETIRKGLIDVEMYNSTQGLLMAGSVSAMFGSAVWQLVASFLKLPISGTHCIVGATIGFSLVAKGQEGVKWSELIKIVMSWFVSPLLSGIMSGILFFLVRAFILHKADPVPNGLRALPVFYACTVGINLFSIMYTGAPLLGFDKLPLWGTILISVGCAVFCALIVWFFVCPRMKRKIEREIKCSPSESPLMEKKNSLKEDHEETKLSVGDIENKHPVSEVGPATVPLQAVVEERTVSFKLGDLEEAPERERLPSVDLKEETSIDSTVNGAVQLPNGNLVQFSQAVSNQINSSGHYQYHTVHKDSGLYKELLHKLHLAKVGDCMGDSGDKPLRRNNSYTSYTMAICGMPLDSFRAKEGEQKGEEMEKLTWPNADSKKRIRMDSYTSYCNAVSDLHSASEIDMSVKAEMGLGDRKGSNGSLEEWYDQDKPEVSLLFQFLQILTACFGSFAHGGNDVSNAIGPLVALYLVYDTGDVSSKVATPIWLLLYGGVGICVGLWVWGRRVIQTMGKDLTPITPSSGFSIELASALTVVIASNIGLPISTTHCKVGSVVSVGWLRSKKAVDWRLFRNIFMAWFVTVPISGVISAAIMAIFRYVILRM
UniProt Q06945: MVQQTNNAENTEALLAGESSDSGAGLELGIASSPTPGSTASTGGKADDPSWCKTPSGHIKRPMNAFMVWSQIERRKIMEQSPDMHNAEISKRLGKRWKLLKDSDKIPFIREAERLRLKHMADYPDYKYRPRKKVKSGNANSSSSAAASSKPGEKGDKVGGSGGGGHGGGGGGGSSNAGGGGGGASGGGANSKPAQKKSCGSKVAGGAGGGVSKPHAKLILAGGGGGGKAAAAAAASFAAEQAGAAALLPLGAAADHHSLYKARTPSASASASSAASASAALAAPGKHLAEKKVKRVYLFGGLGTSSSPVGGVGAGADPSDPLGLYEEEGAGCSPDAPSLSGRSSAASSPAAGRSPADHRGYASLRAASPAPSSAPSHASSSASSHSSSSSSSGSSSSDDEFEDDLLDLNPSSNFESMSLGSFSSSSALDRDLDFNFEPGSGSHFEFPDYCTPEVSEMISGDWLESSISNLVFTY
UniProt Q86US8, 258-279: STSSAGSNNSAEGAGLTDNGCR
UniProt P53814: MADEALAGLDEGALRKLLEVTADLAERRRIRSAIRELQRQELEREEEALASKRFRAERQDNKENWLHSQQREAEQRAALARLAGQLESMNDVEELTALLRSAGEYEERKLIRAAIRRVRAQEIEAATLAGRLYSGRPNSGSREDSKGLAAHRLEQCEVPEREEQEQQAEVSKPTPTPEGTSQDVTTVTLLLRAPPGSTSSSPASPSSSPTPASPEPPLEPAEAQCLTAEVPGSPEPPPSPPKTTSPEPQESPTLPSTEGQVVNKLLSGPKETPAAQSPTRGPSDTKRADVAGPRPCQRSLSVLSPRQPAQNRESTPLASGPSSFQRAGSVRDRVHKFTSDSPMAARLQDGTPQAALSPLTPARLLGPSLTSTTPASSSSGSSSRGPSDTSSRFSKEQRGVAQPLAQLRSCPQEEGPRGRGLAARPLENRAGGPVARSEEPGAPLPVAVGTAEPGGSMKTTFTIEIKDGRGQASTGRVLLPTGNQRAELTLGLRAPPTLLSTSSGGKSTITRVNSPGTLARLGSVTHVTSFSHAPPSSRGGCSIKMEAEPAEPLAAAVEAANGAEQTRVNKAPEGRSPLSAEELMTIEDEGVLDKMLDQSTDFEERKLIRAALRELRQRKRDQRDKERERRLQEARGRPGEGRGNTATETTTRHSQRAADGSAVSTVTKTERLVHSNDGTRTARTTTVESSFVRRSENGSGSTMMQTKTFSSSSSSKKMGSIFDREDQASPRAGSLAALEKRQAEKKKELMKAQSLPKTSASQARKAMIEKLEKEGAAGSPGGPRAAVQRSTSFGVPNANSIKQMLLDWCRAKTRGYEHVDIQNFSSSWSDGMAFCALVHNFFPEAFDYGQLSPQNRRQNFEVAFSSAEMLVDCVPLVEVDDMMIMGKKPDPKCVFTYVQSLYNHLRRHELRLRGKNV
UniProt Q96H20: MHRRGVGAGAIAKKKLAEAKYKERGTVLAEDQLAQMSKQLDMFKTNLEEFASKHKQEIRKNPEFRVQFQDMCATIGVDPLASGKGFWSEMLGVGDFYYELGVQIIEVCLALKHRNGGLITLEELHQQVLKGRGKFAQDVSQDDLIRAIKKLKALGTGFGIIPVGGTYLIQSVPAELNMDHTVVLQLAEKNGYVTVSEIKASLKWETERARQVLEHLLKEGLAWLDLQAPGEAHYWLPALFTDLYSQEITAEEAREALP
UniProt Q15758, 466-488: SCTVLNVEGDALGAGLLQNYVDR
UniProt Q8TB61: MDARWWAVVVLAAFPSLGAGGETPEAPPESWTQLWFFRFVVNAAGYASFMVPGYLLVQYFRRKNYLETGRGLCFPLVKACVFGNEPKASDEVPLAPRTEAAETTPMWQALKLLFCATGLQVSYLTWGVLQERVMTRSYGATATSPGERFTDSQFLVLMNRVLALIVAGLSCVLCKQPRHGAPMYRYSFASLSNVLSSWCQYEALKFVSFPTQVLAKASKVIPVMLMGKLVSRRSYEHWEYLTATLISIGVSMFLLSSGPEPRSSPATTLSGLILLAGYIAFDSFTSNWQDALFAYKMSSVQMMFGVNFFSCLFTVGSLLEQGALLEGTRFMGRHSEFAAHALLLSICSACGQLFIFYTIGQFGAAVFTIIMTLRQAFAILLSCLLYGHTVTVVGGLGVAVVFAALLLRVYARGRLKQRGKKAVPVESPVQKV
UniProt Q07617: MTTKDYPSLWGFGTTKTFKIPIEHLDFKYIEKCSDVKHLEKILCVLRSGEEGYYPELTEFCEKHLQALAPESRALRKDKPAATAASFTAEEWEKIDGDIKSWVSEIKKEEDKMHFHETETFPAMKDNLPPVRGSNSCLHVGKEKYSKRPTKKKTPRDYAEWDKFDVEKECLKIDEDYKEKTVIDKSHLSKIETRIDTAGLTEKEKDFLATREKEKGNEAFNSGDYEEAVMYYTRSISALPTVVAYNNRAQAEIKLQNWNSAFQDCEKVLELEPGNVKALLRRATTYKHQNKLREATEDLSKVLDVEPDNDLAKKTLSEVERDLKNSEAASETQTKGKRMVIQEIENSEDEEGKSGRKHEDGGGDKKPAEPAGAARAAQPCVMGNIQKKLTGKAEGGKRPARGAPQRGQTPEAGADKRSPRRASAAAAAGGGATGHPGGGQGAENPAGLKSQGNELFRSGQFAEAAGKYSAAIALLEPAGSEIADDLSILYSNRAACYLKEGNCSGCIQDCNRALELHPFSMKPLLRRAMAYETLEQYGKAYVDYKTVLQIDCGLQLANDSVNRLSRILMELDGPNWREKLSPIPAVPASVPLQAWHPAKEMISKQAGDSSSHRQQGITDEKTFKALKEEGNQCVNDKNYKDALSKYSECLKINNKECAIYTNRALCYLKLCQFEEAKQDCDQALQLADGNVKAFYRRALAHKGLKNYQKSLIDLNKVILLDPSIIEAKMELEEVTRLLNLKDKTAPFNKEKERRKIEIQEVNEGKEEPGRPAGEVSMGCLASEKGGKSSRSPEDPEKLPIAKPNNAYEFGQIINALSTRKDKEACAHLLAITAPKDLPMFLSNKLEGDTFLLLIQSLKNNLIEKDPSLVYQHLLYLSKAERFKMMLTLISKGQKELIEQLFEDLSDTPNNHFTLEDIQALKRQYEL
UniProt Q5VWJ9: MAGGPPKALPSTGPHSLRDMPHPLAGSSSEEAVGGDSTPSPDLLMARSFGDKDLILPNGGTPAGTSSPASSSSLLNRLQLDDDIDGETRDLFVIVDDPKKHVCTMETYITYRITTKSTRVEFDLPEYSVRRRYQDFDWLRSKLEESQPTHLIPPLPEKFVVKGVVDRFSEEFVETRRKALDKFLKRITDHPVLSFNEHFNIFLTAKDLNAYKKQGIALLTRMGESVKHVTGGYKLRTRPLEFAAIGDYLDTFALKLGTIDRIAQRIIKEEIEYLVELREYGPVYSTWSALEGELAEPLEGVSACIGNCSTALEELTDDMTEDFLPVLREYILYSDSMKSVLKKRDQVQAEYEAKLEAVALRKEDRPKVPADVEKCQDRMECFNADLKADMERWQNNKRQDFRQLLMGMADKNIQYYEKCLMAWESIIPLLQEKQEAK
UniProt Q13596: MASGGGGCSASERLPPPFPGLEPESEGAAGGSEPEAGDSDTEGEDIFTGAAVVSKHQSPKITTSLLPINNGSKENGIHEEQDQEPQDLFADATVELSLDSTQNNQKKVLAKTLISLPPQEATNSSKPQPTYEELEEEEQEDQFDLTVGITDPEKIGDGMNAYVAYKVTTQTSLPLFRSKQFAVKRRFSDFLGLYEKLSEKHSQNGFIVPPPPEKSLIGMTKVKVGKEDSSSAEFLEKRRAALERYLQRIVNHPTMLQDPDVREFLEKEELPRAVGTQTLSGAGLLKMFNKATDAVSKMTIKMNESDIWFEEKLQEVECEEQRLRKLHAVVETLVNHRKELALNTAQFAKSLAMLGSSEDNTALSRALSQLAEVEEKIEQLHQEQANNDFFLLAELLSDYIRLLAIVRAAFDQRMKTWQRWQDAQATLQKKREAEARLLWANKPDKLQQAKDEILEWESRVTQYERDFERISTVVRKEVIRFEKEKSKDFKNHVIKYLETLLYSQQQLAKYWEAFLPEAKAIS
UniProt Q9UN79, 30-53: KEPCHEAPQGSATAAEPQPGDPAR
UniProt Q7KZF4: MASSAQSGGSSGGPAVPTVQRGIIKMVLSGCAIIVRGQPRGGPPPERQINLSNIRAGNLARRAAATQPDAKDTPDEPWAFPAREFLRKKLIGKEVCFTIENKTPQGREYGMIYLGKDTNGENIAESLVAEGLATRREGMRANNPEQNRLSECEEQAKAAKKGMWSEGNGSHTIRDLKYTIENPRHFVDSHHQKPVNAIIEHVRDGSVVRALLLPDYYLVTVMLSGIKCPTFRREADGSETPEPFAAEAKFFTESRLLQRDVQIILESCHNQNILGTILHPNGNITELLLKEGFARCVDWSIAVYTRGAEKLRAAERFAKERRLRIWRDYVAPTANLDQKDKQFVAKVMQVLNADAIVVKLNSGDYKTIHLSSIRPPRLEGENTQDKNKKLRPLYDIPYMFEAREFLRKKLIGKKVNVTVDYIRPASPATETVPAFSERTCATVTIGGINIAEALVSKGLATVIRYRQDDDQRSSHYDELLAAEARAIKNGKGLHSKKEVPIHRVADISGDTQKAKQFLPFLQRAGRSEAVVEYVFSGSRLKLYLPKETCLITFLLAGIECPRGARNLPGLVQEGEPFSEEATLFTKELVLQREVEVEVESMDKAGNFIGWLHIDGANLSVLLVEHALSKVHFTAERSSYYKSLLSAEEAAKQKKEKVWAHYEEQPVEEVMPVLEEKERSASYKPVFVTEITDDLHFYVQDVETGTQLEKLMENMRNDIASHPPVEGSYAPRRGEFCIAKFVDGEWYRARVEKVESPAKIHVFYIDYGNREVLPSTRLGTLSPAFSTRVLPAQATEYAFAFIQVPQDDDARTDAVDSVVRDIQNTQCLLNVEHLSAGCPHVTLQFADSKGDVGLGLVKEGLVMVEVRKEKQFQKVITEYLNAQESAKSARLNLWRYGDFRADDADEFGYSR
UniProt Q53LP3: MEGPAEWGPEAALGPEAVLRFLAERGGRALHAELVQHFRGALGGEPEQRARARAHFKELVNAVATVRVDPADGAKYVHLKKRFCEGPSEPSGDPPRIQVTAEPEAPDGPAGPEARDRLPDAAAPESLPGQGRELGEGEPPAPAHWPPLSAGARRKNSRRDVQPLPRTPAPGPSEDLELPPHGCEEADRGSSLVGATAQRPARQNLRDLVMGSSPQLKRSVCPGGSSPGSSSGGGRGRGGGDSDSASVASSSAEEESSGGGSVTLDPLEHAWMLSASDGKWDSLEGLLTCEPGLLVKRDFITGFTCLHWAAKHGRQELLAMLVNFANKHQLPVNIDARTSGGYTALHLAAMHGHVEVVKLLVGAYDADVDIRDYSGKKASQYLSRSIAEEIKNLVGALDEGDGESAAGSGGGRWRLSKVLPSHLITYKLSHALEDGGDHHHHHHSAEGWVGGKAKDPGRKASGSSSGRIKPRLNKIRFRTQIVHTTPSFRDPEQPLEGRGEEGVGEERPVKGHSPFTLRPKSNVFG
UniProt Q9BQT8: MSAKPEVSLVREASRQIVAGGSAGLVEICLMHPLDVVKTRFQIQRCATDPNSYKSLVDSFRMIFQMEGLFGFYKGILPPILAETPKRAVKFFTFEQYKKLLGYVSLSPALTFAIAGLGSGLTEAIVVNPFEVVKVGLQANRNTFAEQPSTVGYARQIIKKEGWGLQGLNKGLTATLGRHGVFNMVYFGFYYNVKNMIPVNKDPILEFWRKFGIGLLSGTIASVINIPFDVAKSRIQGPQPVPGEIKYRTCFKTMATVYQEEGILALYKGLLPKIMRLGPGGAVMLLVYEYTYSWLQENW
UniProt Q15599, 241-274: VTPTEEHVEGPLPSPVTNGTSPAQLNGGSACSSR

Experiments:
[1] = compound: ClCC(=O)N[C@@H]1CCCc2ccccc12; assay: log2 mean competition ratio of IA-DTB cysteine labelling (DMSO/compound) (log2 ratio); higher = stronger cysteine engagement by compound; conditions: treatment time: 4 h, cell line lysate: HEK293T
Procedure: (§1)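 IA-DTB competitive cysteine chemoproteomics in HEK293T RIPA lysate. Lysates were treated with compound 29 or 30 at 50 or 200 µM for 4 h, then IA-DTB (500 µM, 1 h), trypsin-digested, NeutrAvidin-enriched and analysed by diaPASEF. Competition ratio = intensity DMSO / intensity compound (n=4 treated, n=64 DMSO); binding: mean log2 CR ≥ 1 and p ≤ 0.05 plus QC filters. Target is the cysteine site.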

[2] = compound: ClCC(=O)N[C@H]1CCCc2ccccc12; assay: as above; conditions: treatment time: 4 h, cell line lysate: HEK293T
Procedure: as §1

SMCHD1 C1445 (UniProt A6NHR9)
log2 mean competition ratio ([1]; 50 µM): -0.4
log2 mean competition ratio ([1]; 200 µM): 0.291
log2 mean competition ratio ([2]; 50 µM): -0.431
log2 mean competition ratio ([2]; 200 µM): 0.155

SMPD4 C698 (UniProt Q9NXE4)
log2 mean competition ratio ([1]; 50 µM): -0.458
log2 mean competition ratio ([1]; 200 µM): 0.166
log2 mean competition ratio ([2]; 50 µM): -0.335
log2 mean competition ratio ([2]; 200 µM): 0.0849

SLC20A1 C264 (UniProt Q8WUM9)
log2 mean competition ratio ([1]; 50 µM): 0.237
log2 mean competition ratio ([1]; 200 µM): 0.176
log2 mean competition ratio ([2]; 50 µM): -0.41
log2 mean competition ratio ([2]; 200 µM): 0.017

SOX4 C52 (UniProt Q06945)
log2 mean competition ratio ([1]; 50 µM): -0.219
log2 mean competition ratio ([1]; 200 µM): 0.261
log2 mean competition ratio ([2]; 50 µM): -0.247
log2 mean competition ratio ([2]; 200 µM): 0.57

SORBS3 C521 (UniProt O60504)
log2 mean competition ratio ([1]; 50 µM): 0.0779
log2 mean competition ratio ([1]; 200 µM): -0.221
log2 mean competition ratio ([2]; 50 µM): 0.0923
log2 mean competition ratio ([2]; 200 µM): -0.136

SMG6 C278 (UniProt Q86US8)
log2 mean competition ratio ([1]; 50 µM): -0.371
log2 mean competition ratio ([1]; 200 µM): 0.191
log2 mean competition ratio ([2]; 50 µM): -0.192
log2 mean competition ratio ([2]; 200 µM): 0.475

SLC19A1 C246 (UniProt P41440)
log2 mean competition ratio ([1]; 50 µM): 0.149
log2 mean competition ratio ([1]; 200 µM): 0.199
log2 mean competition ratio ([2]; 50 µM): 0.455
log2 mean competition ratio ([2]; 200 µM): 0.431

SMTN C410 (UniProt P53814)
log2 mean competition ratio ([1]; 50 µM): -0.13
log2 mean competition ratio ([1]; 200 µM): -0.0212
log2 mean competition ratio ([2]; 50 µM): -0.125
log2 mean competition ratio ([2]; 200 µM): 0.017

SLC25A1 C70 (UniProt P53007)
log2 mean competition ratio ([1]; 50 µM): -0.0366
log2 mean competition ratio ([1]; 200 µM): 0.197
log2 mean competition ratio ([2]; 50 µM): 0.191
log2 mean competition ratio ([2]; 200 µM): 0.293

SLC43A1 C384 (UniProt O75387)
log2 mean competition ratio ([1]; 50 µM): -0.0445
log2 mean competition ratio ([1]; 200 µM): 0.0344
log2 mean competition ratio ([2]; 50 µM): -0.369
log2 mean competition ratio ([2]; 200 µM): -0.0391

SNF8 C72 (UniProt Q96H20)
log2 mean competition ratio ([1]; 50 µM): -0.113
log2 mean competition ratio ([1]; 200 µM): -0.156
log2 mean competition ratio ([2]; 50 µM): 0.0433
log2 mean competition ratio ([2]; 200 µM): -0.25

SNX33 C232 (UniProt Q8WV41)
log2 mean competition ratio ([1]; 50 µM): -0.199
log2 mean competition ratio ([1]; 200 µM): 0.274
log2 mean competition ratio ([2]; 50 µM): -0.273
log2 mean competition ratio ([2]; 200 µM): 0.0785

SLC1A5 C467 (UniProt Q15758)
log2 mean competition ratio ([1]; 50 µM): -0.126
log2 mean competition ratio ([1]; 200 µM): 0.248
log2 mean competition ratio ([2]; 50 µM): -0.178
log2 mean competition ratio ([2]; 200 µM): 0.356

SLC27A4 C560 (UniProt Q6P1M0)
log2 mean competition ratio ([1]; 50 µM): 0.115
log2 mean competition ratio ([1]; 200 µM): -0.0125
log2 mean competition ratio ([2]; 50 µM): 0.43
log2 mean competition ratio ([2]; 200 µM): 0.0497

SLC2A13 C467 (UniProt Q96QE2)
log2 mean competition ratio ([1]; 50 µM): -0.22
log2 mean competition ratio ([1]; 200 µM): 0.0371
log2 mean competition ratio ([2]; 50 µM): -0.0906
log2 mean competition ratio ([2]; 200 µM): 0.106

SLC35B2 C80 (UniProt Q8TB61)
log2 mean competition ratio ([1]; 50 µM): -0.0568
log2 mean competition ratio ([1]; 200 µM): 0.0655
log2 mean competition ratio ([2]; 50 µM): 0.45
log2 mean competition ratio ([2]; 200 µM): 0.261

SPAG1 C380 (UniProt Q07617)
log2 mean competition ratio ([1]; 50 µM): 0.195
log2 mean competition ratio ([1]; 200 µM): 0.0927
log2 mean competition ratio ([2]; 50 µM): -0.163
log2 mean competition ratio ([2]; 200 µM): 0.077

SMARCC2 C495 (UniProt Q8TAQ2)
log2 mean competition ratio ([1]; 50 µM): -0.125
log2 mean competition ratio ([1]; 200 µM): -0.216
log2 mean competition ratio ([2]; 50 µM): -0.383
log2 mean competition ratio ([2]; 200 µM): -0.238

SORT1 C651 (UniProt Q99523)
log2 mean competition ratio ([1]; 50 µM): -0.252
log2 mean competition ratio ([1]; 200 µM): 0.322
log2 mean competition ratio ([2]; 50 µM): -0.195
log2 mean competition ratio ([2]; 200 µM): 0.338

SNX7 C248
log2 mean competition ratio ([1]; 50 µM): -0.105
log2 mean competition ratio ([1]; 200 µM): 0.0934
log2 mean competition ratio ([2]; 50 µM): -0.292
log2 mean competition ratio ([2]; 200 µM): 0.0163

SLAIN2 C165
log2 mean competition ratio ([1]; 50 µM): -0.209
log2 mean competition ratio ([1]; 200 µM): 0.157
log2 mean competition ratio ([2]; 50 µM): 0.553
log2 mean competition ratio ([2]; 200 µM): 0.446

SLC27A4 C232 (UniProt Q6P1M0)
log2 mean competition ratio ([1]; 50 µM): 0.0559
log2 mean competition ratio ([1]; 200 µM): 0.00157
log2 mean competition ratio ([2]; 50 µM): 0.0251
log2 mean competition ratio ([2]; 200 µM): -0.245

SLC6A11 C28
log2 mean competition ratio ([1]; 50 µM): -0.163
log2 mean competition ratio ([1]; 200 µM): 0.143
log2 mean competition ratio ([2]; 50 µM): -0.384
log2 mean competition ratio ([2]; 200 µM): 0.00197

SMARCA2 C968 (UniProt P51531)
log2 mean competition ratio ([1]; 50 µM): 0.285
log2 mean competition ratio ([1]; 200 µM): 0.313
log2 mean competition ratio ([2]; 50 µM): 0.227
log2 mean competition ratio ([2]; 200 µM): 0.209

SMG1 C3072 (UniProt Q96Q15)
log2 mean competition ratio ([1]; 50 µM): 0.0208
log2 mean competition ratio ([1]; 200 µM): 0.142
log2 mean competition ratio ([2]; 50 µM): -0.643
log2 mean competition ratio ([2]; 200 µM): 0.151

SNX5 C227 (UniProt Q9Y5X3)
log2 mean competition ratio ([1]; 50 µM): 0.0126
log2 mean competition ratio ([1]; 200 µM): -0.0848
log2 mean competition ratio ([2]; 50 µM): 0.062
log2 mean competition ratio ([2]; 200 µM): -0.00993

SMARCA1 C168 (UniProt P28370)
log2 mean competition ratio ([1]; 50 µM): -0.0479
log2 mean competition ratio ([1]; 200 µM): -0.0651
log2 mean competition ratio ([2]; 50 µM): 0.357
log2 mean competition ratio ([2]; 200 µM): -0.0525

SPAG9 C443 (UniProt O60271)
log2 mean competition ratio ([1]; 50 µM): -0.224
log2 mean competition ratio ([1]; 200 µM): 0.246
log2 mean competition ratio ([2]; 50 µM): -0.546
log2 mean competition ratio ([2]; 200 µM): -0.00956

SMARCA2 C1175 (UniProt P51531)
log2 mean competition ratio ([1]; 50 µM): 0.00549
log2 mean competition ratio ([1]; 200 µM): 0.0881
log2 mean competition ratio ([2]; 50 µM): -0.304
log2 mean competition ratio ([2]; 200 µM): 0.118

SMYD4 C412 (UniProt Q8IYR2)
log2 mean competition ratio ([1]; 50 µM): -0.325
log2 mean competition ratio ([1]; 200 µM): -0.465
log2 mean competition ratio ([2]; 50 µM): -0.286
log2 mean competition ratio ([2]; 200 µM): -0.16

SMG1 C2673 (UniProt Q96Q15)
log2 mean competition ratio ([1]; 50 µM): -0.187
log2 mean competition ratio ([1]; 200 µM): -0.385
log2 mean competition ratio ([2]; 50 µM): 0.364
log2 mean competition ratio ([2]; 200 µM): -0.349

SNX30 C381 (UniProt Q5VWJ9)
log2 mean competition ratio ([1]; 50 µM): 0.077
log2 mean competition ratio ([1]; 200 µM): 0.0113
log2 mean competition ratio ([2]; 50 µM): -0.337
log2 mean competition ratio ([2]; 200 µM): 0.129

SLC27A3 C364
log2 mean competition ratio ([1]; 50 µM): -0.193
log2 mean competition ratio ([1]; 200 µM): -0.356
log2 mean competition ratio ([2]; 50 µM): -0.16
log2 mean competition ratio ([2]; 200 µM): -0.324

SOX2 C265
log2 mean competition ratio ([1]; 50 µM): -0.0969
log2 mean competition ratio ([1]; 200 µM): 0.18
log2 mean competition ratio ([2]; 50 µM): -0.12
log2 mean competition ratio ([2]; 200 µM): 0.325

SNX1 C8 (UniProt Q13596)
log2 mean competition ratio ([1]; 50 µM): -0.0502
log2 mean competition ratio ([1]; 200 µM): 0.0545
log2 mean competition ratio ([2]; 50 µM): 0.335
log2 mean competition ratio ([2]; 200 µM): 0.319

SNRPD2 C46
log2 mean competition ratio ([1]; 50 µM): -0.0212
log2 mean competition ratio ([1]; 200 µM): -0.192
log2 mean competition ratio ([2]; 50 µM): 0.324
log2 mean competition ratio ([2]; 200 µM): -0.0551

SOX13 C33 (UniProt Q9UN79)
log2 mean competition ratio ([1]; 50 µM): 0.0455
log2 mean competition ratio ([1]; 200 µM): -0.149
log2 mean competition ratio ([2]; 50 µM): -0.194
log2 mean competition ratio ([2]; 200 µM): -0.0507

SND1 C96 (UniProt Q7KZF4)
log2 mean competition ratio ([1]; 50 µM): -0.0773
log2 mean competition ratio ([1]; 200 µM): -0.153
log2 mean competition ratio ([2]; 50 µM): -0.146
log2 mean competition ratio ([2]; 200 µM): -0.131

SNX13 C62 (UniProt Q9Y5W8)
log2 mean competition ratio ([1]; 50 µM): -0.00499
log2 mean competition ratio ([1]; 200 µM): -0.225
log2 mean competition ratio ([2]; 50 µM): -0.699
log2 mean competition ratio ([2]; 200 µM): -0.162

SOWAHC C221 (UniProt Q53LP3)
log2 mean competition ratio ([1]; 50 µM): 0.118
log2 mean competition ratio ([1]; 200 µM): 0.0246
log2 mean competition ratio ([2]; 50 µM): -0.0273
log2 mean competition ratio ([2]; 200 µM): 0.0223

SMC2 C326 (UniProt O95347)
log2 mean competition ratio ([1]; 50 µM): -0.0713
log2 mean competition ratio ([1]; 200 µM): 0.0487
log2 mean competition ratio ([2]; 50 µM): 0.00251
log2 mean competition ratio ([2]; 200 µM): 0.0172

SLC25A21 C46 (UniProt Q9BQT8)
log2 mean competition ratio ([1]; 50 µM): -0.0616
log2 mean competition ratio ([1]; 200 µM): 0.0802
log2 mean competition ratio ([2]; 50 µM): -0.201
log2 mean competition ratio ([2]; 200 µM): -0.143

SMC2 C1174 (UniProt O95347)
log2 mean competition ratio ([1]; 50 µM): 0.0976
log2 mean competition ratio ([1]; 200 µM): 0.0574
log2 mean competition ratio ([2]; 50 µM): 0.0658
log2 mean competition ratio ([2]; 200 µM): 0.0749

SLC9A3R2 C271 (UniProt Q15599)
log2 mean competition ratio ([1]; 50 µM): -0.23
log2 mean competition ratio ([1]; 200 µM): 0.138
log2 mean competition ratio ([2]; 50 µM): -0.0789
log2 mean competition ratio ([2]; 200 µM): 0.211

SLC6A11 C612
log2 mean competition ratio ([1]; 50 µM): -0.158
log2 mean competition ratio ([1]; 200 µM): 0.24
log2 mean competition ratio ([2]; 50 µM): -0.145
log2 mean competition ratio ([2]; 200 µM): 0.228
